These are yes or no findings as the source states them, for the method shown. Some entries that bind do so weakly or less than the wild type.
T1: PksD, acyl hydrolase (AH) domain of the bacillaene trans-AT PKS (Bacillus subtilis str. 168), O34877
T1 chain: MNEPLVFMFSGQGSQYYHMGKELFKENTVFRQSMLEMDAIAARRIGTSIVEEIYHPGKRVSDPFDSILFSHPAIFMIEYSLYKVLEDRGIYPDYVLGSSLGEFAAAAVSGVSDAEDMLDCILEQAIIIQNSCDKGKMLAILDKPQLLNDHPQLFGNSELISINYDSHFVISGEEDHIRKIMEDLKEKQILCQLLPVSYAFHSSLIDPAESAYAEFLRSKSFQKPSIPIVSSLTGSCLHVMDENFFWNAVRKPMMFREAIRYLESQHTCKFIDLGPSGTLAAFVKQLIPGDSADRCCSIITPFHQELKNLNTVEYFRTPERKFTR

T2: Selenomethionine (SeMet)-derived PksD (Bacillus subtilis str. 168), O34877
T2 chain: T1 chain

B1: PksD, acyl hydrolase (AH) domain of the bacillaene trans-AT PKS, O34877 1-324 (enzyme)
chain: T1 chain
B2: Selenomethionine (SeMet)-derived PksD, O34877 1-324 (enzyme)
chain: T1 chain
modifications: here or on the partner: selenomethionine (SeMet)-derived; selenomethionine (SeMet)-derived

What was measured:
[1] = target: T1, PksD, acyl hydrolase (AH) domain of the …; assay: SEC; conditions: remark: other sources report otherwise
[2] = target: T2, Selenomethionine (SeMet)-derived PksD …; assay: crystal structure; conditions: remark: other sources report otherwise

Row | Binder | binding [1] | binding [2]
1 | B1 | binds | –
2 | B2 | – | binds

— publication doi:10.1101/2023.08.11.552765
